Values quoted from earlier work, collected in US9249116B2, “Enzyme-activating compounds and compositions” (The Board of Trustees of the University of Illinois, priority 2012, dated 2016).
Some results were stated once for a whole list of compounds, not compound by compound.

Details: cited from earlier work

## C=CCc1cccc(/C=N/NC(=O)CN2CCN(Cc3ccccc3)CC2)c1O [PAC-1, Procaspase-Activating Compound 1, reference compound]
  half-life in vivo: 1 to 2 h
